# PubChem BioAssay AID1508600 (Functional Genomics Laboratory (NCATS/FGL), 2020)
# Hit rate of the full screen: of about 53,000 sequences, about 3,700 (7%) were called active.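 Rule for the calls: active = gene knockdowns whose robust z-score for IL-1 alpha signal is at least 2 or at most -2, so actives lie on both sides; inactive = the rest.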 The list shows a part of the results.
# Experiment: Components of the Cytosolic LPS Sensing Pathway: Gene Identification via Genome-wide siRNA Screen;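 note: robust z of the log signal after scaling to non-targeting control siRNA wells of the plate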
# Details: RAW264.7 macrophages, IL-1a HTRF, actives lie on both sides, screened at 100 nM (by protocol), cells primed 5 h with Pam3CSK4 first
# Method in brief: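 Read-out: IL-1a HTRF on supernatant, divided by plate negative-control median ×100, log-transformed and converted to robust z-score. Cells were RAW264.7 given 100 nM siRNA, Pam3CSK4-primed 5 hours, then LipidA-transfected 24 hour.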
row,Sequence,z-score
1,GCUCAUCUUAUCCUCUAAGTT against Cts7,inactive: 0.391
2,GCACUUACACUCUGUUUAATT against Fgf13,inactive: -0.623
3,CCGGCAAUGACUGUGAAUCTT against Adamts7,inactive: -1.31
4,GGCUCCACCAAAGCCUGUUTT against Rpf1,inactive: 0.461
5,GGACAUCUACACCAUUUGGTT against Mplkip,active: -2.11
6,GGUUCCAACAAUUGUAAAGTT against Chl1,inactive: -0.00378
7,GGAAGGAUGUAAGUUGUCCTT against Suz12,inactive: 0.119
8,GGAUCUCUAUAUGUGGCUUTT against Brix1,inactive: 0.0557
9,GGACAUCUGACAUCCAGUGTT against Pmvk,inactive: -0.659
10,CCAUCCUAAAGAAUGUUAATT against Nf1,inactive: -1.27
11,CCUUAUUUGCUUAUCAUAGTT against Zfp367,inactive: -1.4
12,GGAAGCCAAUGUCAAGUGCTT against Cbx1,inactive: 1.09
13,CCAACUAAGAUGGAUCAAUTT against Commd2,inactive: -0.883
14,GGAAUUUAAGCAGAAUGUGTT against Fcho1,inactive: -1.32
15,GGUUGUAGGAAUAAUUGAATT against Nup160,inactive: 0.688
16,GGACAUCGAAGUCCAACACTT against Plekhm1,inactive: -0.501
17,CCCAGGAAAAACCGUCAACTT against Zfp58,inactive: 0.718
18,GCAACAAGCCUAGCUAAUCTT against A630038E17Rik,inactive: 0.905
19,GGGCAGUGCUUAUUAUGCUTT against Emc9,inactive: 0.555
20,GGCAAUUCAUUGCAUGUUATT against Cdc42ep3,inactive: -0.177
21,GGGACCAGAGGAAACAGAATT against Tnfsf13b,active: -2.21
22,GGUGCUGACUGGUCAGAUGTT against Cers1,inactive: -0.41
23,GGUGAUAGUACUGUCAGCCTT against Olfr1225,inactive: -0.517

row,Sequence,z-score
1,GGAACUCUCAGAUCUGAUUTT against Ppl,inactive: 0.969
2,GUAUCCUUUUUAUAGCCUATT against Vmn1r44,inactive: 0.482
3,GGGUGAUAAUGAGUCUACCTT against Pja1,inactive: -0.0641
4,GGAAAAAGAAUUGAGAGCUTT against Dhx15,inactive: -1.79
5,GCAAACAAGGUCCUAGUCUTT against Iqca,inactive: -1.5
6,GGGCAAUGGGUGAUCUAAUTT against Phactr1,inactive: 0.00934
7,GCUCAUCUACCACCUCACUTT against Lrrc75b,inactive: 0.214
8,GGCCGUAUGUGAAUUUGAATT against Tnfaip6,inactive: 0.714
9,GCCUCAUUUGAUCAAUGUCTT against Actr2,inactive: 1.86
10,GGCUUAAGGGAAUAUUUUCTT against Tmem14a,inactive: -0.75
11,GGAAACCAUCUUUGAACUUTT against Specc1l,inactive: 0.54
12,GAAGAAAUGAAGACACAAGTT against Phgr1,inactive: 1.22
13,CCUCCUGAUAUCGAGUUCCTT against Dnm1,inactive: -0.904
14,GGAUCCAUCUGUUGGCAACTT against Slc5a2,inactive: 0.891
15,GCUAUCUCUGCUAAUAAAGTT against Col6a1,inactive: -0.203
16,GCAUCGAUCUUGAGUUAGATT against Hebp1,inactive: 0.579
17,GCAUUCAGCCAUCGUAAUCTT against Eef2kmt,inactive: -1.13
18,GCACAGUUCCAACUUCGUUTT against Ttll6,inactive: -0.57
19,GCUCAAAUUGAGUCCUUAUTT against Ccdc122,inactive: -0.548
20,GGAAAUACUAUGUUUGACUTT against Gja5,inactive: -0.144
21,AAAGGACUGCCUAAGACAATT against Vmn1r203,inactive: -0.921
22,GGUAUUAUGAUCAGAUUUGTT against Pdcd6ip,inactive: 1.83
23,CCAUGUCAAAGAAAAACCATT against Rfx2,inactive: -0.387

# At a glance, part of the list above:
row,Sequence,z-score
12,GGAAGCCAAUGUCAAGUGCTT against Cbx1,inactive: 1.09
13,CCAACUAAGAUGGAUCAAUTT against Commd2,inactive: -0.883
14,GGAAUUUAAGCAGAAUGUGTT against Fcho1,inactive: -1.32

# The results go on:

row,Sequence,z-score
1,GGUCACACCCACCAUUACGTT against Serpina11,inactive: -0.765
2,GGUCAGCAUUAUCAAGCCUTT against Hsd11b2,inactive: 0.159
3,GGAUUCCUGGUCUUUAAGCTT against Zfp7,inactive: 0.631
4,GGAGUGUAUUAAGAUUUCUTT against Guf1,inactive: 1.5
5,CCAUACUACGGAUGUUUGATT against Calb2,inactive: 0.677
6,GGAAGCAUUUGAAGUUAAATT against Prdm16,inactive: 0.977
7,GGUGAACUGAAAAUUCUAGTT against Usp12,inactive: 0.639
8,GGCUGAAAGGGAAGACAAATT against B3galnt1,inactive: 1.47
9,CGAGAUUUAUAUGGUGUCUTT against Agbl3,inactive: -0.175
10,UCAACCAAACAAUCCUGAATT against Olfr417,inactive: -0.473
11,GGUAAAAACUUUCCUUUAGTT against Prph2,inactive: 1.48
12,GGACUCAAGUGCAAGACACTT against Strip2,inactive: 1.6
13,CCUAUUGACUGUGAGCUAUTT against C8b,inactive: 0.667
14,GGACAGUUCAAUGAGGACATT against Arl8a,inactive: 0.208
15,GGAGCUACCCGACAUACUGTT against Cfi,inactive: -1.21
16,GGAGACAAUUUAAAAGCAGTT against Cmtm2b,inactive: -1.16
17,GGACUUUGAGACUCAUCCGTT against Tmem229b,inactive: -1.01
18,GGGCUUUGGCUACAAAGGCTT against Ppif,inactive: -1.4
19,GGAACAGAUCUCUGAUAUATT against Sub1,inactive: 0.564
20,CCUCAUUCGAUACAUCUGUTT against Ints3,inactive: 0.319
21,GGAAGAAGCCAAAAUUGAATT against Pdgfa,inactive: 0.237
22,GCUCUCCACUGACUUAGUATT against Mrgpra3,inactive: -1.91
